# Laboratory results reported in the supplement of paper PMC10849652.
# Sequences of proteins named here, by UniProt entry; tags and fusion partners are left off. A change or cut given only in a name is not applied to a line headed by its entry.
# UniProt Q96LJ7: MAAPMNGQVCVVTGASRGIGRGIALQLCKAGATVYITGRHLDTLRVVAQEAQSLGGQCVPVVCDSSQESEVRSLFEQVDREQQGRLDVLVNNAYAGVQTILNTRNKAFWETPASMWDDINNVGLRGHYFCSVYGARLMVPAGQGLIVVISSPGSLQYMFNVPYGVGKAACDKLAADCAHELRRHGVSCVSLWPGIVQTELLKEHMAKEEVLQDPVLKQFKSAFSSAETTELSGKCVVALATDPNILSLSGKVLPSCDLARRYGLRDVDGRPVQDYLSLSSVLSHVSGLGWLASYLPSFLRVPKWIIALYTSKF
# UniProt O60610, whole entry, looked up: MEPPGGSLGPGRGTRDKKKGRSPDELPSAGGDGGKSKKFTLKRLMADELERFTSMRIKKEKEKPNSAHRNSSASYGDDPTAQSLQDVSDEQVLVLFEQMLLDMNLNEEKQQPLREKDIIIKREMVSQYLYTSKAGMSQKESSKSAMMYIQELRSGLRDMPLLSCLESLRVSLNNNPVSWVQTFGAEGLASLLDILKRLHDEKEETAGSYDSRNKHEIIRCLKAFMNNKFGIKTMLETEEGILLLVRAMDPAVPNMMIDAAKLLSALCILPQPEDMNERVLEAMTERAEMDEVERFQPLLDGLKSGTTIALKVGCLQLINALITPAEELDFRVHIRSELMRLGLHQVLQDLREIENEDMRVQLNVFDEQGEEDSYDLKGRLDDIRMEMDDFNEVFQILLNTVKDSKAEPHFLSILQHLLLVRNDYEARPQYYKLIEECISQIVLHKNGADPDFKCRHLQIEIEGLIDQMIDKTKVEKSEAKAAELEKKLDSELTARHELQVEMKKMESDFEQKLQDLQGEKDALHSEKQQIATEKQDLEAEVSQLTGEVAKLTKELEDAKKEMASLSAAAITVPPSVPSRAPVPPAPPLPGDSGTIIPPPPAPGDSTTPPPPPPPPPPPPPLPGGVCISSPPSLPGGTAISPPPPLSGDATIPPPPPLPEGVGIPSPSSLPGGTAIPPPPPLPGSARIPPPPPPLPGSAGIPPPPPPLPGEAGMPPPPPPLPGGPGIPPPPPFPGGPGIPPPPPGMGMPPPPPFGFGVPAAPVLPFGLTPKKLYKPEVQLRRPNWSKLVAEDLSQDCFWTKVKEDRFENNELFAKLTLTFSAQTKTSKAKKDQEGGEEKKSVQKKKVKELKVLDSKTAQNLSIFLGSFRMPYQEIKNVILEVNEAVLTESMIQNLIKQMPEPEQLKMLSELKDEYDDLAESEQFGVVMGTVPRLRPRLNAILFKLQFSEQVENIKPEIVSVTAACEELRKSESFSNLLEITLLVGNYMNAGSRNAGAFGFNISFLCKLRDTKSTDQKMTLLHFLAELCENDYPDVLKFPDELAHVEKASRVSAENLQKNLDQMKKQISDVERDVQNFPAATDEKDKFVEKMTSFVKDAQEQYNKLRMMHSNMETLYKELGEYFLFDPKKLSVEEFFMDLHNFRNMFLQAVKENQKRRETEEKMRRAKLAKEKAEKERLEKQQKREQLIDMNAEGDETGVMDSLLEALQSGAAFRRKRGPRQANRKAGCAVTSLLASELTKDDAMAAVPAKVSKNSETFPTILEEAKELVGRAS
# UniProt Q8IY37: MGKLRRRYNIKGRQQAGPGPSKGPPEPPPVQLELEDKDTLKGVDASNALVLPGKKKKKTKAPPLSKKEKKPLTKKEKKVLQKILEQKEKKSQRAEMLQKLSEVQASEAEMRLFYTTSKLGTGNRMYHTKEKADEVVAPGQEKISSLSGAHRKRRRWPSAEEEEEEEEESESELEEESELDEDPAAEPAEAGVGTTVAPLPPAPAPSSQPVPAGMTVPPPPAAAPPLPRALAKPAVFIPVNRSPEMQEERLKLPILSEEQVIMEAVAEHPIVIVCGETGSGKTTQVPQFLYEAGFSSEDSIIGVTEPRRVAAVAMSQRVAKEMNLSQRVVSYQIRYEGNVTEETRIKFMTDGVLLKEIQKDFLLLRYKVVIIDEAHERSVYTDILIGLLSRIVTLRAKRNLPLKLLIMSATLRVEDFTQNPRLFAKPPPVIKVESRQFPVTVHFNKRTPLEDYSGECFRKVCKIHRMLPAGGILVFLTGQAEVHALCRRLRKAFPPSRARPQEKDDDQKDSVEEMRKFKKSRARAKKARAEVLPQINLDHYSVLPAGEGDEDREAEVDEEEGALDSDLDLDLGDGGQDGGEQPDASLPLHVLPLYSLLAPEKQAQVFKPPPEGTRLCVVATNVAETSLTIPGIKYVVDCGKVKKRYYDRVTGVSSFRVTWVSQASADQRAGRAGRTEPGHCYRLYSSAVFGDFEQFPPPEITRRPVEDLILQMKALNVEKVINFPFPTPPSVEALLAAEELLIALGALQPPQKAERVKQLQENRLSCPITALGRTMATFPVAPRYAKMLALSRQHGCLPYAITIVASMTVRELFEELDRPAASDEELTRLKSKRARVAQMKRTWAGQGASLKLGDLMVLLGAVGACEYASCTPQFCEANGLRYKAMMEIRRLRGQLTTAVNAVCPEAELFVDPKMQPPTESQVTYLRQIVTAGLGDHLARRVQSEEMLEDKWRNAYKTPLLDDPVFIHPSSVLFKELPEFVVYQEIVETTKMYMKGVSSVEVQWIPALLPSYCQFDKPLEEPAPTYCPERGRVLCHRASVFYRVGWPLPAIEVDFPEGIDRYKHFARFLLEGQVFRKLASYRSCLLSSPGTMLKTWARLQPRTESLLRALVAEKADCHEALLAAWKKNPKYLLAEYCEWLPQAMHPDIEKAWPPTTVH
# UniProt Q96DA6: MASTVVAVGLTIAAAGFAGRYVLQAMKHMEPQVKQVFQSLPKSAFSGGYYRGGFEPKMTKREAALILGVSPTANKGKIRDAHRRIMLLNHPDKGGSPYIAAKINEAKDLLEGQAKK
# UniProt Q13574: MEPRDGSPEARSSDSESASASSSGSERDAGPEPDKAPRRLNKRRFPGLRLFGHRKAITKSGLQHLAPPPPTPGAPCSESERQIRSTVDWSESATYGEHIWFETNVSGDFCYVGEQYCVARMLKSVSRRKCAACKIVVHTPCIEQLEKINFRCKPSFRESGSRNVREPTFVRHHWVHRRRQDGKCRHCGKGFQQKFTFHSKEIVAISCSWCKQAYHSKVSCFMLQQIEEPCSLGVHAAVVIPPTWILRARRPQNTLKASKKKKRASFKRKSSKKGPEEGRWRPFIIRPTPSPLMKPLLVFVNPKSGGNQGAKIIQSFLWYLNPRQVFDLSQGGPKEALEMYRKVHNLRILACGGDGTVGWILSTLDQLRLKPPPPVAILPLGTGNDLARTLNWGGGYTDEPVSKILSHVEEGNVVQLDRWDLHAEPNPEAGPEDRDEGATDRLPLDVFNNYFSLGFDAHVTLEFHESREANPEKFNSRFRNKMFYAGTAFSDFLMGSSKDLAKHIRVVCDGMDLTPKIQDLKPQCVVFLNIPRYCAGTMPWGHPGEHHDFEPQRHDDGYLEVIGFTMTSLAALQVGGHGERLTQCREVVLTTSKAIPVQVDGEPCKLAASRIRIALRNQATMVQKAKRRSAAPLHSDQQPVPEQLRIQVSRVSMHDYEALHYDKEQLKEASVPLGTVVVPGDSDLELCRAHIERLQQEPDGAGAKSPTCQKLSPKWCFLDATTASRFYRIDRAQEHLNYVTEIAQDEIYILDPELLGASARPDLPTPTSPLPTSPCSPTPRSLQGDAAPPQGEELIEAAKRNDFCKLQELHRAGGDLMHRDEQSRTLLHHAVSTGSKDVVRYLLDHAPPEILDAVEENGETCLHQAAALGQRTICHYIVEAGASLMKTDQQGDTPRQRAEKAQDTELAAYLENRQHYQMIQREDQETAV
# UniProt Q8WXX5: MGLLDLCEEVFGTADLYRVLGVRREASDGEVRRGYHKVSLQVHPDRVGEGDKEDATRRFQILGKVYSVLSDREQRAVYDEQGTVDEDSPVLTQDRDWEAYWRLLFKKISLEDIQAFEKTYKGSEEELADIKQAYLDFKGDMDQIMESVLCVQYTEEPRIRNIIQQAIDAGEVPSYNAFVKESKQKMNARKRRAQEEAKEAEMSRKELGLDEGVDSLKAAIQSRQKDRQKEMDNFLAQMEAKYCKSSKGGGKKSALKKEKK
# UniProt O75937: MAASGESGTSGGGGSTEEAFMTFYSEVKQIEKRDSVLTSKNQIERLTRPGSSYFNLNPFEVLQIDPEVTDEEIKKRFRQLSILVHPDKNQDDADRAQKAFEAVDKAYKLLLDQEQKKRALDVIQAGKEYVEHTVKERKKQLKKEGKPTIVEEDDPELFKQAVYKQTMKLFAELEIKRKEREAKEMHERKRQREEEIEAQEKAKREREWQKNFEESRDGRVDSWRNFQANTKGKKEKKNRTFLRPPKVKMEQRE
# UniProt Q8NF50: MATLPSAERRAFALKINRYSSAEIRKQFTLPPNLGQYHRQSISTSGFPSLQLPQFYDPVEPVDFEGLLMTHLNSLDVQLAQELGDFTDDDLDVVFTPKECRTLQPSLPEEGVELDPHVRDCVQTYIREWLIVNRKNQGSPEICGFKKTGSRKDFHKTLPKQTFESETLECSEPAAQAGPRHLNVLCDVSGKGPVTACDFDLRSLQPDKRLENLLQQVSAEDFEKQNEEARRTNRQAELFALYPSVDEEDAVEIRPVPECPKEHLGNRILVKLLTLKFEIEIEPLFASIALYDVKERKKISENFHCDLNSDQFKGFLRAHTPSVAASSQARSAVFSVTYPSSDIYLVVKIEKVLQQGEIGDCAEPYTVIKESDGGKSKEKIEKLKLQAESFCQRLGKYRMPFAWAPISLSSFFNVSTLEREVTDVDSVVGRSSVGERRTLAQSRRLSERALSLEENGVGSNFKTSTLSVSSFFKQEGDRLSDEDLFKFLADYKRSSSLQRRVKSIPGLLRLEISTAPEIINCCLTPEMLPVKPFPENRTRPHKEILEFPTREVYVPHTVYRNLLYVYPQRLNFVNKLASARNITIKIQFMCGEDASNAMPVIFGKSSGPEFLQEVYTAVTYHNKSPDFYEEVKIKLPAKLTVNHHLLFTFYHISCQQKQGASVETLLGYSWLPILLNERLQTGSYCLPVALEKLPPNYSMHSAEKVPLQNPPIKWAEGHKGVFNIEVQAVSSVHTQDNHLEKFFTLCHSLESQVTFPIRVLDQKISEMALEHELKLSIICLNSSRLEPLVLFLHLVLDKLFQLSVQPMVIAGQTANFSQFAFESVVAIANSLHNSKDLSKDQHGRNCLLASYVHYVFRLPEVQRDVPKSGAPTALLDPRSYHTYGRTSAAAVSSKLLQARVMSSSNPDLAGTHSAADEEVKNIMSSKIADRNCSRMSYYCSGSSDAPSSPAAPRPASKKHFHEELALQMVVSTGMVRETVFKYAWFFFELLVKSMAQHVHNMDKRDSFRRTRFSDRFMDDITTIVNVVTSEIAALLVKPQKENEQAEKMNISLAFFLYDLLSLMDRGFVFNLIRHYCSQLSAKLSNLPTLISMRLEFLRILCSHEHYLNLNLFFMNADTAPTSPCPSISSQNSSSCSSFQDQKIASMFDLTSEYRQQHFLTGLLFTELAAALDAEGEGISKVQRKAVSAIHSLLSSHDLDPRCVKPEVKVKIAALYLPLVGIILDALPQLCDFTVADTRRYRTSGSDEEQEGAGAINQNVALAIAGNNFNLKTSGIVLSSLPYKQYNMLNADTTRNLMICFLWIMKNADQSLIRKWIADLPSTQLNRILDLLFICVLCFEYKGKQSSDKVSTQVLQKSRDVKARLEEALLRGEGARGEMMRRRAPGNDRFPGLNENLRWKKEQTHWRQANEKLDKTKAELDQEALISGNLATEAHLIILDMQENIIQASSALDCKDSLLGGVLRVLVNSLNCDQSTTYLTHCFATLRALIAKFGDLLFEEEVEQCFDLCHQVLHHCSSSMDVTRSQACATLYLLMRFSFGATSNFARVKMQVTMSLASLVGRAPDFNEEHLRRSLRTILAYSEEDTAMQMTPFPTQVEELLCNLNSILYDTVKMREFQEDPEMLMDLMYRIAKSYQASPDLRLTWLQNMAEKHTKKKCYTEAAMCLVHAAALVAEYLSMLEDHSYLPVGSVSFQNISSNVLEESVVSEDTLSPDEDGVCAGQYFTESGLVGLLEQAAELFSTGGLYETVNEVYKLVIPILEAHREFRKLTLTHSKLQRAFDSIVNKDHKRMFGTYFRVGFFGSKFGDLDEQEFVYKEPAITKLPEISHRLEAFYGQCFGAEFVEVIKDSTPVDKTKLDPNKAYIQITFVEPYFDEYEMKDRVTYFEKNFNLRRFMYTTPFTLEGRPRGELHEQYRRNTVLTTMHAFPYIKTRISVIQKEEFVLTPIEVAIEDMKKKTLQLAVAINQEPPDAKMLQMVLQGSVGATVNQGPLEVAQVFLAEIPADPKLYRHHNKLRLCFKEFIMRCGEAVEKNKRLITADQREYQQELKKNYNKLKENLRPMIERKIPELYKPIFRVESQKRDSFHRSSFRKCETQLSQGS
# Some of the results follow.
# Columns and labels:
# Assay in all cases: log2 fold change, soluble protein after heating vs DMSO (PISA); higher = thermal stabilisation; K562 lysate, 10 uM; active = over 0.2 and 3.5 SD of the protein, either way, in both replicates (recomputed)
# [1] = compound: CS(=O)(=O)CCNCc1ccc(-c2ccc3ncnc(Nc4ccc(OCc5cccc(F)c5)c(Cl)c4)c3c2)o1 [lapatinib]
# Outline: (§1)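 Dounce homogenisation of K562 pellets in PBS pH 7.4 with 1 mM MgCl2 produced a crude extract, used at 1 mg/mL protein. Exposure to 10 μM compound lasted 30 min, and aliquots were then heated for 3 min across 48°C-58°C, pooled and brought to 0.5% NP-40 at 4°C. The supernatant after 21,000xg for 90 min was quantified by TMTpro 16plex LC-MS/MS with channel sums equalised. Duplicate values are given as log-two fold change in thermal stability relative to solvent controls.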
# [2] = compound: CS(=O)(=O)N1CCN(Cc2cc3nc(-c4cccc5[nH]ncc45)nc(N4CCOCC4)c3s2)CC1 [pictilisib]
# Outline: as §1
# [3] = compound: C[C@@H](Oc1cc(-c2cnn(C3CCNCC3)c2)cnc1N)c1c(Cl)ccc(F)c1Cl [crizotinib]
# Outline: as §1
# [4] = compound: C[C@H](C1=CC=C(C=C1)C(=O)NC2=C3C=CNC3=NC=C2)N
# Outline: as §1
# [5] = compound: C[C@H](Nc1ncnc2nc[nH]c12)c1cc2cccc(Cl)c2c(=O)n1-c1ccccc1 [duvelisib]
# Outline: as §1
# [6] = compound: Cc1cc(Nc2cc(CN3CCOCC3)c3nc(C)c(Cc4ccc(Cl)cc4F)n3n2)n[nH]1 [gandotinib]
# Outline: as §1
# [7] = compound: Cc1cc(Nc2cc(N3CCN(C)CC3)nc(Sc3ccc(NC(=O)C4CC4)cc3)n2)n[nH]1 [tozasertib]
# Outline: as §1
# [8] = compound: Cc1ccc(-n2nc(C(C)(C)C)cc2NC(=O)Nc2ccc(OCCN3CCOCC3)c3ccccc23)cc1 [doramapimod]
# Outline: as §1
# [9] = compound: Cc1ccc(NC(=O)c2ccc(CN3CC[C@H](N(C)C)C3)c(C(F)(F)F)c2)cc1Nc1nccc(-c2cncnc2)n1 [bafetinib]
# Outline: as §1
# [10] = compound: Cc1cccc(CC(=O)N2CCc3c2ccc(-c2cn(C)c4ncnc(N)c24)c3F)n1
# Outline: as §1
# [11] = compound: Cc1cn(-c2cc(NC(=O)c3ccc(C)c(Nc4nccc(-c5cccnc5)n4)c3)cc(C(F)(F)F)c2)cn1 [nilotinib]
# Outline: as §1
# [12] = compound: Cc1nc(Nc2n[nH]c3c2CN(C(=O)N[C@H](CN(C)C)c2ccccc2)C3(C)C)c2sccc2n1
# Outline: as §1
# [13] = compound: Cc1nc(Nc2ncc(C(=O)Nc3c(C)cccc3Cl)s2)cc(N2CCN(CCO)CC2)n1 [dasatinib]
# Outline: as §1
# [14] = compound: Cc1ncc(-c2ccnc(Nc3ccc(S(C)(=O)=O)cc3)n2)n1C(C)C
# Outline: as §1
# [15] = compound: Cn1cc(-c2ccc3c(c2)CCN3C(=O)Cc2cccc(C(F)(F)F)c2)c2c(N)ncnc21
# Outline: as §1
# [16] = compound: Cn1cc(CNCC2CCN(c3ncc(C(=O)NO)cn3)CC2)c2ccccc21 [quisinostat]
# Outline: as §1
# [17] = compound: Cn1cncc1[C@@](N)(c1ccc(Cl)cc1)c1ccc2c(c1)c(-c1cccc(Cl)c1)cc(=O)n2C [tipifarnib]
# Outline: as §1
# [18] = compound: NC(=O)Nc1cc(-c2cccc(F)c2)sc1C(=O)N[C@H]1CCCNC1
# Outline: as §1
# [19] = compound: NC(=O)c1cnc(N[C@@H]2CCCC[C@@H]2N)nc1Nc1cccc(-n2nccn2)c1
# Outline: as §1
# [20] = compound: NC1(c2ccc(-c3nc4ccn5c(=O)[nH]nc5c4cc3-c3ccccc3)cc2)CCC1
# Outline: as §1
Target,log2 fold change [1],log2 fold change [2],log2 fold change [3],log2 fold change [4],log2 fold change [5],log2 fold change [6],log2 fold change [7],log2 fold change [8],log2 fold change [9],log2 fold change [10],log2 fold change [11],log2 fold change [12],log2 fold change [13],log2 fold change [14],log2 fold change [15],log2 fold change [16],log2 fold change [17],log2 fold change [18],log2 fold change [19],log2 fold change [20]
DHRS1 (UniProt Q96LJ7),inactive: -0.138,inactive: -0.089,inactive: -0.014,inactive: -0.037,active: 0.406,inactive: 0.099,inactive: -0.281,inactive: -0.015,inactive: 0.056,inactive: 0.092,inactive: -0.009,inactive: -0.043,inactive: 0.063,inactive: -0.064,inactive: -0.042,inactive: 0.012,inactive: 0.055,inactive: -0.001,inactive: 0.033,inactive: -0.026
DHRS11 (UniProt Q6UWP2),inactive: -0.017,inactive: 0.014,inactive: 0.024,inactive: -0.035,inactive: 0.024,inactive: -0.007,inactive: 0.028,inactive: -0.032,inactive: -0.051,inactive: -0.02,inactive: 0.058,inactive: 0.017,inactive: -0.018,inactive: 0.008,inactive: 0.03,inactive: 0.024,inactive: 0.002,inactive: 0.037,inactive: 0.002,inactive: 0
DIAPH1 (UniProt O60610),inactive: -0.007,inactive: 0.014,inactive: 0.004,inactive: 0.06,inactive: -0.006,inactive: -0.063,inactive: 0.004,inactive: -0.003,inactive: -0.001,inactive: -0.021,inactive: -0.003,inactive: -0.009,inactive: -0.019,inactive: -0.009,inactive: 0.006,inactive: -0.006,inactive: -0.006,inactive: -0.006,inactive: 0.002,inactive: 0.008
DMAP1 (UniProt Q9NPF5),inactive: 0.059,inactive: -0.041,inactive: -0.074,inactive: -0.034,inactive: 0.063,inactive: -0.043,inactive: 0.061,inactive: 0.043,inactive: -0.211,inactive: -0.003,inactive: -0.007,inactive: 0.117,inactive: -0.019,inactive: 0.009,inactive: 0.046,inactive: -0.087,inactive: -0.095,inactive: 0.099,inactive: 0.007,inactive: 0.004
DHX37 (UniProt Q8IY37),inactive: 0.017,inactive: 0.098,inactive: -0.092,inactive: 0.156,inactive: -0.019,inactive: -0.146,inactive: -0.026,inactive: -0.042,inactive: 0.056,inactive: -0.084,inactive: -0.013,inactive: 0.013,inactive: -0.3,inactive: -0.021,inactive: 0.032,inactive: 0.104,inactive: -0.005,inactive: 0.038,inactive: -0.061,inactive: 0.155
DHX15 (UniProt O43143),inactive: -0.012,inactive: -0.011,inactive: 0.046,inactive: 0.007,inactive: 0.007,inactive: -0.017,inactive: -0.001,inactive: -0.026,inactive: -0.004,inactive: -0.012,inactive: 0,inactive: -0.015,inactive: 0.015,inactive: -0.008,inactive: -0.008,inactive: 0.071,inactive: -0.006,inactive: -0.005,inactive: 0.01,inactive: -0.044
DNAJB4 (UniProt Q9UDY4),inactive: 0.002,inactive: 0.01,inactive: -0.075,inactive: -0.011,inactive: 0,inactive: 0.059,inactive: 0.042,inactive: 0.069,inactive: -0.044,inactive: 0.029,inactive: 0.002,inactive: -0.009,inactive: -0.019,inactive: -0.022,inactive: 0.009,inactive: -0.02,inactive: -0.008,inactive: 0.005,inactive: 0.018,inactive: 0.039
DNAJC19 (UniProt Q96DA6),inactive: -0.042,inactive: -0.016,inactive: -0.047,inactive: -0.005,inactive: -0.03,inactive: -0.013,inactive: 0.02,inactive: 0.035,inactive: -0.038,inactive: 0.002,inactive: -0.012,inactive: -0.015,inactive: -0.017,inactive: 0.012,inactive: -0.014,inactive: 0.011,inactive: 0.019,inactive: 0.011,inactive: -0.012,inactive: 0
DGKZ (UniProt Q13574),inactive: -0.004,inactive: 0.035,inactive: -0.053,inactive: 0,inactive: -0.021,inactive: 0.056,inactive: -0.064,inactive: 0,inactive: -0.112,inactive: -0.015,inactive: 0.021,inactive: -0.007,inactive: -0.049,inactive: -0.003,inactive: -0.058,inactive: 0.019,inactive: 0.061,inactive: 0.005,inactive: 0.018,inactive: -0.057
DNAJC9 (UniProt Q8WXX5),inactive: 0.015,inactive: 0.001,inactive: 0.036,inactive: 0.037,inactive: -0.016,inactive: 0.007,inactive: -0.04,inactive: -0.006,inactive: 0.044,inactive: -0.108,inactive: 0.018,inactive: 0.007,inactive: 0.003,inactive: 0.008,inactive: -0.022,inactive: 0.057,inactive: 0.025,inactive: 0.016,inactive: -0.016,inactive: 0.009
DHRS3 (UniProt O75911),inactive: 0.02,inactive: -0.051,inactive: -0.024,inactive: -0.044,inactive: -0.025,inactive: 0.059,inactive: -0.043,inactive: 0.035,inactive: -0.032,inactive: 0.011,inactive: 0.007,inactive: 0.005,active: 0.23,inactive: -0.028,inactive: 0.024,inactive: -0.031,inactive: 0.06,inactive: 0.019,inactive: -0.078,inactive: -0.044
DIS3L2 (UniProt Q8IYB7),inactive: 0.007,inactive: -0.107,inactive: 0.025,inactive: 0.013,inactive: -0.036,inactive: -0.03,inactive: 0.003,inactive: 0.075,inactive: -0.033,inactive: 0.059,inactive: 0.002,inactive: 0.037,inactive: -0.066,inactive: -0.015,inactive: -0.001,inactive: 0.067,inactive: 0.022,inactive: 0.011,inactive: 0.001,inactive: -0.01
DNAJA1 (UniProt P31689),inactive: -0.011,inactive: 0.051,inactive: -0.024,inactive: -0.139,inactive: 0.021,inactive: 0.075,inactive: -0.025,inactive: 0.013,inactive: -0.04,inactive: 0.049,inactive: 0.009,inactive: 0.012,inactive: -0.032,inactive: 0,inactive: -0.024,inactive: -0.075,inactive: -0.047,inactive: 0.014,inactive: -0.029,inactive: -0.014
DNAJC8 (UniProt O75937),inactive: 0.023,inactive: 0.028,inactive: 0.105,inactive: 0.123,inactive: 0.032,inactive: -0.074,inactive: -0.003,inactive: -0.02,inactive: 0.001,inactive: -0.09,inactive: -0.052,inactive: 0.05,inactive: 0.034,inactive: 0.025,inactive: 0.006,inactive: 0.115,inactive: 0.106,inactive: -0.019,inactive: -0.009,inactive: 0.026
DOCK11 (UniProt Q5JSL3),inactive: -0.006,inactive: 0.009,inactive: -0.043,inactive: -0.051,inactive: -0.003,inactive: -0.045,inactive: 0.025,inactive: 0.045,inactive: -0.019,inactive: 0.043,inactive: -0.024,inactive: 0.015,inactive: -0.036,inactive: -0.01,inactive: 0.006,inactive: -0.057,inactive: -0.002,inactive: 0.055,inactive: 0.02,inactive: 0.021
DOCK8 (UniProt Q8NF50),inactive: -0.032,inactive: -0.011,inactive: -0.03,inactive: -0.002,inactive: 0.003,inactive: -0.097,inactive: 0.042,inactive: 0.029,inactive: -0.062,inactive: 0.02,inactive: -0.007,inactive: -0.023,inactive: -0.045,inactive: 0.04,inactive: 0.058,inactive: -0.053,inactive: -0.033,inactive: 0.032,inactive: 0.016,inactive: 0

# Shown with tabs: part of the list above.
Target	log2 fold change [1]	log2 fold change [2]	log2 fold change [3]	log2 fold change [4]	log2 fold change [5]	log2 fold change [6]	log2 fold change [7]	log2 fold change [8]	log2 fold change [9]	log2 fold change [10]	log2 fold change [11]	log2 fold change [12]	log2 fold change [13]	log2 fold change [14]	log2 fold change [15]	log2 fold change [16]	log2 fold change [17]	log2 fold change [18]	log2 fold change [19]	log2 fold change [20]
DHRS11 (UniProt Q6UWP2)	inactive: -0.017	inactive: 0.014	inactive: 0.024	inactive: -0.035	inactive: 0.024	inactive: -0.007	inactive: 0.028	inactive: -0.032	inactive: -0.051	inactive: -0.02	inactive: 0.058	inactive: 0.017	inactive: -0.018	inactive: 0.008	inactive: 0.03	inactive: 0.024	inactive: 0.002	inactive: 0.037	inactive: 0.002	inactive: 0
DNAJA1 (UniProt P31689)	inactive: -0.011	inactive: 0.051	inactive: -0.024	inactive: -0.139	inactive: 0.021	inactive: 0.075	inactive: -0.025	inactive: 0.013	inactive: -0.04	inactive: 0.049	inactive: 0.009	inactive: 0.012	inactive: -0.032	inactive: 0	inactive: -0.024	inactive: -0.075	inactive: -0.047	inactive: 0.014	inactive: -0.029	inactive: -0.014
